The record followed here is publication PMC4069188.

Amino acid sequences for entries named in this document (tags omitted).
UniProt P37238: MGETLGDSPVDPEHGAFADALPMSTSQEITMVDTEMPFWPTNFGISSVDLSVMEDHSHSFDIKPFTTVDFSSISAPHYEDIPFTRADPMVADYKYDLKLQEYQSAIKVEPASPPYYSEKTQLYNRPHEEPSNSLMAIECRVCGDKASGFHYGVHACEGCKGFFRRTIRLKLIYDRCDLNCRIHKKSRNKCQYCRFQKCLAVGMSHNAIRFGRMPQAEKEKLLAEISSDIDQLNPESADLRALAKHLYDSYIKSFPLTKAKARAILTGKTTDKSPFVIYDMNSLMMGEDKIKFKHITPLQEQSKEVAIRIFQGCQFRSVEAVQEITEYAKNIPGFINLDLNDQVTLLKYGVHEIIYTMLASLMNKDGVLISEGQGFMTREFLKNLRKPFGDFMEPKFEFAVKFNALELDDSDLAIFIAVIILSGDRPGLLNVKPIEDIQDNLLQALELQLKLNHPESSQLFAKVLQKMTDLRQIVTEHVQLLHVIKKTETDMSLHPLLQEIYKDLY

Results are given in words; binding and its absence hold for the method and conditions named. Binding seen in cells or lysates may run through a third protein. Some binding calls cover weakened binding; strength is not graded here.

The assay addresses mitogen-activated protein kinase kinase 1 (MEK1), endogenous in 3T3-L1 adipocytes (mouse (endogenous in 3T3-L1)) (UniProt P31938). The assay is described as follows: co-IP; co-immunoprecipitation of endogenous MEK1 and PPARγ from the nuclear extract of 3T3-L1 adipocytes, control or treated with atRA (100 nM, 48 h) in DM containing CoA.

“peroxisome proliferator-activated receptor gamma (PPARγ), endogenous in 3T3-L1 adipocytes (from UniProt P37238 1-505)”: the binding result is “binds”.
